Test results reported in PubChem BioAssay AID256 (DTP/NCI, 2004).
The list does not hold the whole screen: it gathers tests that were run many times, whatever their T/C, doses with no T/C, and many T/C values between a quarter and a half above the control. Other doses and runs of a compound stand elsewhere. T/C gives the treated animals as a percentage of the vehicle group. Some doses have a count of surviving animals in place of a T/C: the source holds a T/C of zero for them, seemingly a mark for toxic or unscored doses. Some survivor counts are full or nearly so, which does not show that the dose was tolerated: the source hardly ever lists a survival T/C far under the control, and the zero likely stands for such cases as well. Survivors were counted at the toxicity check, usually on the fifth day, unless a day is given; later deaths do not show. Schedules are NCI's codes, taken here to give the interval after Q, in days (D) or hours (H), and the number of doses after X. Some entries were tested several times; the results are listed from low to high. Where survival is the endpoint, this PubChem deposit counts one and a half times the control or more as active, and values a quarter to a half above the control carry no call in these data; other NCI protocols may use other cut-offs. Counts like (3×) count equal records among those shown. Some T/C values are followed by the survivors on the day toxicity was checked, most often the fifth; where none is given, no animal had died by that day.

System: CD2F1 mice, L1210 leukemia ip, survival T/C
Assay: NCI In Vivo Anticancer Drug Screen. Data for tumor model L1210 Leukemia (intraperitoneal) in CD2F1 (CDF1) mice
Conditions: higher T/C = longer survival
In short: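 Read-out first: treated-group measurement over vehicle-control measurement, expressed as a ratio. Animals bore a transplanted tumor line and were dosed with compound or vehicle.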

[1] = T/C endpoint: mean survival time, dose: 200.0 mg/kg/injection, schedule: Q04DX003 (ip), vehicle: saline with Tween-80
[2] = T/C endpoint: mean survival time, dose: 400.0 mg/kg/injection, schedule: Q04DX003 (ip), vehicle: saline with Tween-80
[3] = T/C endpoint: mean survival time, dose: 100.0 mg/kg/injection, schedule: Q01DX009 (ip), vehicle: Klucel (hydroxypropylcellulose) (HPC)
[4] = T/C endpoint: mean survival time, dose: 200.0 mg/kg/injection, schedule: Q01DX009 (ip), vehicle: Klucel (hydroxypropylcellulose) (HPC)

NC(=S)N/N=C/c1ccc(O)cn1
T/C (T/C endpoint: mean survival time, dose: 9.4 mg/kg/injection, schedule: Q01DX009 (ip), vehicle: saline with Tween-80, evaluated on day 30): 129 % of control (2×) | T/C (T/C endpoint: mean survival time, dose: 9.4 mg/kg/injection, schedule: Q01DX009 (ip), vehicle: saline with Tween-80, evaluated on day 60): 137 % of control | T/C (T/C endpoint: mean survival time, dose: 12.5 mg/kg/injection, schedule: Q01DX009 (ip), vehicle: saline): 126 and 147 % of control | T/C (T/C endpoint: mean survival time, dose: 18.8 mg/kg/injection, schedule: Q01DX009 (ip), vehicle: saline with Tween-80): 140 and 147 % of control | T/C (T/C endpoint: mean survival time, dose: 25.0 mg/kg/injection, schedule: Q01DX009 (ip), vehicle: saline): 134 % of control | T/C (T/C endpoint: mean survival time, dose: 37.5 mg/kg/injection, schedule: Q01DX009 (ip), vehicle: saline with Tween-80): 147 % of control | T/C (T/C endpoint: mean survival time, dose: 50.0 mg/kg/injection, schedule: Q01DX009 (ip), vehicle: saline): 146 % of control | survivor count (T/C endpoint: mean survival time, dose: 150.0 mg/kg/injection, schedule: Q01DX009 (ip), vehicle: saline with Tween-80): 6 of 6 | survivor count (T/C endpoint: mean survival time, dose: 200.0 mg/kg/injection, schedule: Q01DX009 (ip), vehicle: saline with Tween-80): 6 of 10 | survivor count (T/C endpoint: mean survival time, dose: 200.0 mg/kg/injection, schedule: Q01DX009 (ip), vehicle: saline): 6 of 6 | survivor count (T/C endpoint: mean survival time, dose: 400.0 mg/kg/injection, schedule: Q01DX009 (ip), vehicle: saline with Tween-80): 3 of 10 | survivor count (T/C endpoint: mean survival time, dose: 400.0 mg/kg/injection, schedule: Q01DX009 (ip), vehicle: saline): 5 of 6 | T/C (T/C endpoint: median survival time, dose: 10.0 mg/kg/injection, schedule: Q03HX024 (ip), vehicle: saline): 128 % of control | T/C (T/C endpoint: median survival time, dose: 11.25 mg/kg/injection, schedule: Q03HX024 (ip), vehicle: suspension in saline): 135 % of control | T/C (T/C endpoint: median survival time, dose: 72.5 mg/kg/injection, schedule: Q03HX008 (ip), vehicle: suspension in saline): 132 % of control | T/C (T/C endpoint: median survival time, dose: 90.0 mg/kg/injection, schedule: Q03HX024 (ip), vehicle: suspension in saline): 146 % of control | T/C (T/C endpoint: median survival time, dose: 108.3 mg/kg/injection, schedule: Q04DX003 (ip), vehicle: suspension in saline): 144 % of control | T/C (T/C endpoint: median survival time, dose: 180.0 mg/kg/injection, schedule: Q04DX003 (ip), vehicle: suspension in saline): 134 % of control

N#CC(C#N)=NNc1ccc2cn[nH]c2c1
survivor count (T/C endpoint: median survival time, dose: 200.0 mg/kg/injection, schedule: Q01DX009 (ip), vehicle: Klucel (hydroxypropylcellulose) (HPC)): 3 of 6

CCN(CC)Cc1cc(Nc2cc(C)nc(Nc3ccc(Cl)c(Cl)c3)n2)ccc1OC
survivor count (T/C endpoint: mean survival time, dose: 100.0 mg/kg/injection, schedule: Q04DX003 (ip), vehicle: saline with Tween-80): 6 of 6 | survivor count [1]: 0 of 6 | survivor count [2]: 1 of 6

COc1cc(NS(C)(=O)=O)ccc1Nc1c2ccccc2nc2cc(C(F)(F)F)c(N)cc12
T/C (T/C endpoint: mean survival time, dose: 25.0 mg/kg/injection, schedule: Q01DX009 (ip), vehicle: Klucel (hydroxypropylcellulose) (HPC)): 125 % of control | T/C (T/C endpoint: mean survival time, dose: 50.0 mg/kg/injection, schedule: Q01DX001 (ip), vehicle: Klucel (hydroxypropylcellulose) (HPC)): 125 % of control | T/C (T/C endpoint: mean survival time, dose: 50.0 mg/kg/injection, schedule: Q01DX009 (ip), vehicle: Klucel (hydroxypropylcellulose) (HPC)): 142 % of control | T/C (T/C endpoint: mean survival time, dose: 100.0 mg/kg/injection, schedule: Q01DX001 (ip), vehicle: Klucel (hydroxypropylcellulose) (HPC)): 136 % of control [4 of 6 alive] | T/C [3]: 146 % of control | survivor count [4]: 6 of 6 | survivor count (T/C endpoint: mean survival time, dose: 400.0 mg/kg/injection, schedule: Q01DX009 (ip), vehicle: Klucel (hydroxypropylcellulose) (HPC)): 1 of 6

O=C1N(CC2CO2)CCN1CC1CO1 (stereo not drawn)
T/C (T/C endpoint: median survival time, dose: 25.0 mg/kg/injection, schedule: Q01DX009 (ip), vehicle: saline): 145 % of control

CSc1cc(NC(C)=O)nc2nc[nH]c12
survivor count (T/C endpoint: mean survival time, dose: 400.0 mg/kg/injection, schedule: Q01DX001 (ip), vehicle: Klucel (hydroxypropylcellulose) (HPC)): 1 of 6

CN(C)CCC(=O)c1cccc(O)c1
survivor count (T/C endpoint: mean survival time, dose: 400.0 mg/kg/injection, schedule: Q04DX002 (ip), vehicle: saline with Tween-80): 0 of 3

CCN(CC)CC(O)CNc1ncnc(N)c1C(=C(C)C)c1ccc(Cl)cc1 (stereo not drawn)
survivor count [1]: 4 of 6 | survivor count [2]: 0 of 6

O=C(Nc1ccc(N=C=S)cc1Cl)c1cc(Cl)cc(Cl)c1O
survivor count [3]: 0 of 6 | survivor count [4]: 0 of 6 and 4 of 6

Cc1ccc(CCF)cc1
survivor count (T/C endpoint: mean survival time, dose: 400.0 mg/kg/injection, schedule: Q01DX001 (ip), vehicle: saline with Tween-80): 3 of 6

C#CC(O)CCC (stereo not drawn)
survivor count (T/C endpoint: mean survival time, dose: 400.0 mg/kg/injection, schedule: Q01DX001 (ip), vehicle: saline): 0 of 3
